The list shows a part of the results.
What follows are targets tested with CN1CC[C@H](c2c(O)cc(O)c3c(=O)cc(-c4ccccc4Cl)oc23)[C@H](O)C1 [alvocidib] (assay: log2 fold change, soluble protein after heating vs DMSO (PISA); higher = thermal stabilisation; K562 lysate, 10 uM; active = over 0.2 and 3.5 SD of the protein, either way, in both replicates (recomputed)).
Method in brief: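 A 30 min treatment with 10 μM compound was applied to crude K562 extract at 1 mg/mL protein in PBS pH 7.4 with 1 mM MgCl2. Heating for 3 min spanned 48°C-58°C, after which aliquots were pooled, adjusted to 0.5% NP-40 at 4°C and spun at 21,000xg for 90 min. TMTpro 16plex LC-MS/MS of the supernatant, with channel sums equalised, gave values recorded as log-two fold change in thermal stability against solvent controls, from duplicates.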

Sequences of proteins named here, by UniProt entry; tags and fusion partners are left off. A change or cut given only in a name is not applied to a line headed by its entry.
UniProt Q9Y281, whole entry, looked up: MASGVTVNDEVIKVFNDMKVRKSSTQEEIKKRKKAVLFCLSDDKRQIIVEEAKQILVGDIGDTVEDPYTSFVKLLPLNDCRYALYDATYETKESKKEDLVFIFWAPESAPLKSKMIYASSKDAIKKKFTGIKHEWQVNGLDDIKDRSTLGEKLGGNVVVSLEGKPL
UniProt Q9UEE9, whole entry, looked up: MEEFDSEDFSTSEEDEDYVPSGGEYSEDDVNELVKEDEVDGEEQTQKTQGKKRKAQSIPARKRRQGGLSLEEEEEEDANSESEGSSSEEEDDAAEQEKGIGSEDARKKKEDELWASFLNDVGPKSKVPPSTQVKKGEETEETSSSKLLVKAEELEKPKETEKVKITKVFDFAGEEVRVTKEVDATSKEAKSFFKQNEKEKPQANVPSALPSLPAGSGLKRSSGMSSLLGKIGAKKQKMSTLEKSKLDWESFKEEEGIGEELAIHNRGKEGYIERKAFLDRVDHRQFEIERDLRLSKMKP
UniProt Q8IW35: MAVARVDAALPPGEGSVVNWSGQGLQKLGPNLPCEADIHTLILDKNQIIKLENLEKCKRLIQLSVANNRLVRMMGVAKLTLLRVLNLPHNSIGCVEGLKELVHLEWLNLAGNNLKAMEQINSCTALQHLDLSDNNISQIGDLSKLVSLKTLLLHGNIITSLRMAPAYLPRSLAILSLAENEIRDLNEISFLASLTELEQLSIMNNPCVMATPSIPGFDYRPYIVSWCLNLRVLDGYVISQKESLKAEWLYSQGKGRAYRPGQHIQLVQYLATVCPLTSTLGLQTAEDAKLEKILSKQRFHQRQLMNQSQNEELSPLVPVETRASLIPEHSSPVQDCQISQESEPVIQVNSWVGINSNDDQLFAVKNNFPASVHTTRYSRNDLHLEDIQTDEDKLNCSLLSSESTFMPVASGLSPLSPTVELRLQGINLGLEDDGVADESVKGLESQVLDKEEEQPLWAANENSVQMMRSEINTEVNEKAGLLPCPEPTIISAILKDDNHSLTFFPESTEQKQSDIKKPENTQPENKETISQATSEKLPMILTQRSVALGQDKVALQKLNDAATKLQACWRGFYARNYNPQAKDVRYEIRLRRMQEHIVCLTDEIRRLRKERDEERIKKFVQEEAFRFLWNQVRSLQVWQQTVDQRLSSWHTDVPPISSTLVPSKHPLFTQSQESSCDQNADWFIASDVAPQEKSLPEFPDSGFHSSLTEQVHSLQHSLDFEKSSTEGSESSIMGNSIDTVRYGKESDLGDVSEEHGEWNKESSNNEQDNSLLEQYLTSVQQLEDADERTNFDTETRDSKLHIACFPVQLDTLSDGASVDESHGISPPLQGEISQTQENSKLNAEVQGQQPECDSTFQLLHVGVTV
UniProt Q99618: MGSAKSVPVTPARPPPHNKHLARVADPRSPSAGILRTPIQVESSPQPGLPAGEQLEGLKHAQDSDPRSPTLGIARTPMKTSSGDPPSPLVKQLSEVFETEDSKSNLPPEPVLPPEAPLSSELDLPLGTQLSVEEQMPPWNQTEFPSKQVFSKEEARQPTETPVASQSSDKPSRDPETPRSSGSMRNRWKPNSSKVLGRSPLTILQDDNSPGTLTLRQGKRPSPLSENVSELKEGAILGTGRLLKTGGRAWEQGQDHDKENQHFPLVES
UniProt P60953, whole entry, looked up: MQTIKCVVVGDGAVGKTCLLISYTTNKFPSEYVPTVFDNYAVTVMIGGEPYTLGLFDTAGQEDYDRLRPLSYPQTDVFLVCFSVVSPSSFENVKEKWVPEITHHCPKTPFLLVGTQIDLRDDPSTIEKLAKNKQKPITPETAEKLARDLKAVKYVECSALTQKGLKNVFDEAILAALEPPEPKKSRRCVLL
UniProt Q96G23: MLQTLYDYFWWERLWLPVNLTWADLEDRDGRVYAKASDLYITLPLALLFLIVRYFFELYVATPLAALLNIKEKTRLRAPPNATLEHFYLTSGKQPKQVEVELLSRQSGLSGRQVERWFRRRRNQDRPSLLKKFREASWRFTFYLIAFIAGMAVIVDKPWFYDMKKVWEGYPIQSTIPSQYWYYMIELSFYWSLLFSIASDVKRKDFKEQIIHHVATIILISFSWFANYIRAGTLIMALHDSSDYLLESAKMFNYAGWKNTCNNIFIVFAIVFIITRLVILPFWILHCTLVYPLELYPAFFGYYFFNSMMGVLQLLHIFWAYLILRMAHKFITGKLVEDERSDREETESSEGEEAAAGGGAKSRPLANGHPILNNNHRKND
UniProt P23528, whole entry, looked up: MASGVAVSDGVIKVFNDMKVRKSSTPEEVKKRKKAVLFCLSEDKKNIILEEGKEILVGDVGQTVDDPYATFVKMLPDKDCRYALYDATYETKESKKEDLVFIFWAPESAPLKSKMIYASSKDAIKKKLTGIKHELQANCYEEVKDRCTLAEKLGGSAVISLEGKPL
UniProt Q9BS16: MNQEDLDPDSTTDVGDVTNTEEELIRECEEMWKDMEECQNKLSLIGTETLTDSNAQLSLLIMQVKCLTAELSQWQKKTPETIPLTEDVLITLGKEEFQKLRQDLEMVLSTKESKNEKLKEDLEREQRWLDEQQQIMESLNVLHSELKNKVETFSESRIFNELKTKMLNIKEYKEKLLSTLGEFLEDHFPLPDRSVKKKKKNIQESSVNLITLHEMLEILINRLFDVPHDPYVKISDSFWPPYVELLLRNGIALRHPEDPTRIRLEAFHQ
UniProt Q9H5V8, whole entry, looked up: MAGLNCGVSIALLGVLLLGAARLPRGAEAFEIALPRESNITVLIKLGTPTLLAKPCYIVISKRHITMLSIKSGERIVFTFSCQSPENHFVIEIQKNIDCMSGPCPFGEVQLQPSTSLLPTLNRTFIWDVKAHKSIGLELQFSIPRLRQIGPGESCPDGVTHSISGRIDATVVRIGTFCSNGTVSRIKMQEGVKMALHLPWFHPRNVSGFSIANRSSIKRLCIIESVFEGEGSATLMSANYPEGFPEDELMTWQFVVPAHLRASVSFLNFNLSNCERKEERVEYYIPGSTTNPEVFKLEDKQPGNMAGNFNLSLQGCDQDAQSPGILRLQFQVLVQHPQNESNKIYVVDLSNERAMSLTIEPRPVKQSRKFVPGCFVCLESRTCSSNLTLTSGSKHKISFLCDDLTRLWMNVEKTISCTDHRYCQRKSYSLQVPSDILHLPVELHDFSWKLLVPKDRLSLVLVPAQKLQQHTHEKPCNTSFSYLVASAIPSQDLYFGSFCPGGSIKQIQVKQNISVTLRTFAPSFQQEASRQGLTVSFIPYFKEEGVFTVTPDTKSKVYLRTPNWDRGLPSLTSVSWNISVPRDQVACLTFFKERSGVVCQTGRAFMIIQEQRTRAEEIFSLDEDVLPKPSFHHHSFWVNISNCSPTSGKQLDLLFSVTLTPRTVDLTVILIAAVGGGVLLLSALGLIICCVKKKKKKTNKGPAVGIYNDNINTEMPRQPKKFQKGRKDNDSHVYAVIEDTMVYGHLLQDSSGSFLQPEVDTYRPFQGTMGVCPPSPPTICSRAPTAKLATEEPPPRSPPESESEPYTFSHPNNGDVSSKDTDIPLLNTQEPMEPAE
UniProt Q8NHZ8, whole entry, looked up: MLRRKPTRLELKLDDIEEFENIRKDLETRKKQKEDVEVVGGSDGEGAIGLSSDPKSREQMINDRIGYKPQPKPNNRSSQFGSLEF
UniProt Q71F23: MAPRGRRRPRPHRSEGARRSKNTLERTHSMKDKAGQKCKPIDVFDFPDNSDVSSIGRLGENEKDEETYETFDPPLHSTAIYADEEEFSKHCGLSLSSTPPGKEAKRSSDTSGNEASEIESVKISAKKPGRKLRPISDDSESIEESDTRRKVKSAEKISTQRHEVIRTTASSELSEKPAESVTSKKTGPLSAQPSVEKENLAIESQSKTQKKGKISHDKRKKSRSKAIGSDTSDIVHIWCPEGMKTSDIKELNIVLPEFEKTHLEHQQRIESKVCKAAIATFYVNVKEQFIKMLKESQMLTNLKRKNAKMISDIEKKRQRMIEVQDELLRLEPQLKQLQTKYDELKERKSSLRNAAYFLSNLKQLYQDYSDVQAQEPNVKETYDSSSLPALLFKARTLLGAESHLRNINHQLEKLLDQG
UniProt Q5VV42: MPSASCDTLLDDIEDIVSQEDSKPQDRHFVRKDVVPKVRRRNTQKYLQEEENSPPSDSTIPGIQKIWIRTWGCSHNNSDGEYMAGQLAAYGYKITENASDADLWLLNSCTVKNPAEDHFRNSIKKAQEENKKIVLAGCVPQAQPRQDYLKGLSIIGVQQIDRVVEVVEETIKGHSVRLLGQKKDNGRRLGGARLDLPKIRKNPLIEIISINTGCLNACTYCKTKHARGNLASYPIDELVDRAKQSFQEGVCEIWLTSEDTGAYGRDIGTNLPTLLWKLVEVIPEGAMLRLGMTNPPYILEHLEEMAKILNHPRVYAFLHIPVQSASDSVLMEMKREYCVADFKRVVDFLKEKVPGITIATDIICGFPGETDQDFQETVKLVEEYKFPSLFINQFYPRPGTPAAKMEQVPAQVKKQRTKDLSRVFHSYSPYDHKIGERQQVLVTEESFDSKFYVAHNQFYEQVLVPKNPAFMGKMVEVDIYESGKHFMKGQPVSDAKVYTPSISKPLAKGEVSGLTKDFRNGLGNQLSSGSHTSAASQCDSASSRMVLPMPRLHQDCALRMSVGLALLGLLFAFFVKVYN
UniProt Q66GS9: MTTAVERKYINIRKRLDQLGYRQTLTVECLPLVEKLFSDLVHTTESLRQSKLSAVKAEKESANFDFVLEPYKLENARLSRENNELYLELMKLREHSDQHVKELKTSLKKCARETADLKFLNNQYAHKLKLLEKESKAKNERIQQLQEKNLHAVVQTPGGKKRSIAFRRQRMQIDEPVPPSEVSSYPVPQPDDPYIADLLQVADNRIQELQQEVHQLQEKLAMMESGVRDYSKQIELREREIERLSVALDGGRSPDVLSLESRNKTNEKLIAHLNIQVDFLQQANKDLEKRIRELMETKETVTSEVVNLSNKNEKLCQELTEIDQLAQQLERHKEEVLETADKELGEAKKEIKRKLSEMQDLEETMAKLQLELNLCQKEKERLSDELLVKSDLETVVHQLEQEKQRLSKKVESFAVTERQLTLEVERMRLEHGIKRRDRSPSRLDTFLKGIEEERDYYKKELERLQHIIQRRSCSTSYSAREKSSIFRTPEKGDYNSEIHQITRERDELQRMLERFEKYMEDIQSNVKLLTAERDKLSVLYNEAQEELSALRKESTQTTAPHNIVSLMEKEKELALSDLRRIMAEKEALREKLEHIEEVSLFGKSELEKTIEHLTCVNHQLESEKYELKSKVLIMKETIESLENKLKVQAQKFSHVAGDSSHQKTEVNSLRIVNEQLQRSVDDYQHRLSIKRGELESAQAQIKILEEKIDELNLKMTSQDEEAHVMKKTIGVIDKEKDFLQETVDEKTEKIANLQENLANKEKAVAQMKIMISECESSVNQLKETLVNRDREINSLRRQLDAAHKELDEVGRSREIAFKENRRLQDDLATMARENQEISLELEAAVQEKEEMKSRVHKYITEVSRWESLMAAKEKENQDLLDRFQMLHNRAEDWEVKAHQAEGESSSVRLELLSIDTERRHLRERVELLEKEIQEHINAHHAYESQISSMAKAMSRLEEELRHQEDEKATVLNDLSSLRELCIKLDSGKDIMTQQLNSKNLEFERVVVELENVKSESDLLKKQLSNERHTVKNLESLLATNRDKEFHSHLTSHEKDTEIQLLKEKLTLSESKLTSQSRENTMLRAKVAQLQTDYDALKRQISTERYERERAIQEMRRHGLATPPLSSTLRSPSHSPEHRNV
UniProt Q8TAP6: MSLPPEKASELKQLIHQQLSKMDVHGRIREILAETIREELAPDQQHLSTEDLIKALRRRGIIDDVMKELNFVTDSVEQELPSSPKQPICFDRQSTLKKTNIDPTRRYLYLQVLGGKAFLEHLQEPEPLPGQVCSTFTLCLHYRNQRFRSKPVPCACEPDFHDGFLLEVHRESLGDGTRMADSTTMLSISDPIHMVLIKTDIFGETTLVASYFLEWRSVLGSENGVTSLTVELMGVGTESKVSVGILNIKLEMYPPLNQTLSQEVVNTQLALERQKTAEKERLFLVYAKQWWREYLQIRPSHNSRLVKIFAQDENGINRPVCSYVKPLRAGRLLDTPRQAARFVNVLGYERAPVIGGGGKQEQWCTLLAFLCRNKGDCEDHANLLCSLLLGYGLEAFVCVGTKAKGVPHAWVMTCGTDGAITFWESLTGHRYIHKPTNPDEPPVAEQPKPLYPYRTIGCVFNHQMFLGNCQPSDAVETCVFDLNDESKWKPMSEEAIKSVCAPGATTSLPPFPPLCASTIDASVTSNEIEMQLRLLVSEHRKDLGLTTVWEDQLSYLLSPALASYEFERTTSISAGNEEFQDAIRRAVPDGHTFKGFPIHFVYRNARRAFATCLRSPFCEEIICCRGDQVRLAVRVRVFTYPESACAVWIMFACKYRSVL
UniProt O14735: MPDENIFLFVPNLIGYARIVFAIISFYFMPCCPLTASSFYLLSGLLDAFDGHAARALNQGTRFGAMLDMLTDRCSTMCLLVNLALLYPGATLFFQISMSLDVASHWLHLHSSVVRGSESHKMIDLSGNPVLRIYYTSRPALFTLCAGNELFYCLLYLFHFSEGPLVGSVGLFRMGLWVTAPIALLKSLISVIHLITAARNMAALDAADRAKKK

log2 fold change, inactive:
CEP350 (UniProt Q5VT06) -0.034
CEP170 (UniProt Q5SW79) -0.043
CFH (UniProt P08603) 0.062
CFL2 (UniProt Q9Y281) -0.012
CFDP1 (UniProt Q9UEE9) -0.104
CEP97 (UniProt Q8IW35) -0.057
CDCA3 (UniProt Q99618) -0.014
CDC42 isoform 1 (UniProt P60953) -0.083
CENPH (UniProt Q9H3R5) 0.012
CERS2 (UniProt Q96G23) 0.051
CDC45 isoform 3 (UniProt O75419) 0.031
CFL1 (UniProt P23528) 0.005
CENPK (UniProt Q9BS16) -0.036
CDCP1 (UniProt Q9H5V8) -0.058
CDC26 (UniProt Q8NHZ8) -0.002
CENPU (UniProt Q71F23) -0.04
CDC42BPB (UniProt Q9Y5S2) -0.098
CEP85 isoform 2 (UniProt Q6P2H3) 0.033
CDKAL1 (UniProt Q5VV42) 0.015
CEP135 (UniProt Q66GS9) -0.031
CDK19 (UniProt Q9BWU1) 0.043
CEP76 (UniProt Q8TAP6) -0.031
CDIPT (UniProt O14735) -0.058

Retrieved one by one from above (two):
log2 fold change, inactive:
CFL1 (UniProt P23528) 0.005
CDC42 isoform 1 (UniProt P60953) -0.083

— the supplement of paper PMC10849652
